Reference: the supplement of paper PMC10849652
This is one part of the list.

Chains of the proteins cited; added tags and fusions are not shown. Lines headed by an entry give the natural chain unless they say otherwise; changes in a name come on top.
UniProt O60447: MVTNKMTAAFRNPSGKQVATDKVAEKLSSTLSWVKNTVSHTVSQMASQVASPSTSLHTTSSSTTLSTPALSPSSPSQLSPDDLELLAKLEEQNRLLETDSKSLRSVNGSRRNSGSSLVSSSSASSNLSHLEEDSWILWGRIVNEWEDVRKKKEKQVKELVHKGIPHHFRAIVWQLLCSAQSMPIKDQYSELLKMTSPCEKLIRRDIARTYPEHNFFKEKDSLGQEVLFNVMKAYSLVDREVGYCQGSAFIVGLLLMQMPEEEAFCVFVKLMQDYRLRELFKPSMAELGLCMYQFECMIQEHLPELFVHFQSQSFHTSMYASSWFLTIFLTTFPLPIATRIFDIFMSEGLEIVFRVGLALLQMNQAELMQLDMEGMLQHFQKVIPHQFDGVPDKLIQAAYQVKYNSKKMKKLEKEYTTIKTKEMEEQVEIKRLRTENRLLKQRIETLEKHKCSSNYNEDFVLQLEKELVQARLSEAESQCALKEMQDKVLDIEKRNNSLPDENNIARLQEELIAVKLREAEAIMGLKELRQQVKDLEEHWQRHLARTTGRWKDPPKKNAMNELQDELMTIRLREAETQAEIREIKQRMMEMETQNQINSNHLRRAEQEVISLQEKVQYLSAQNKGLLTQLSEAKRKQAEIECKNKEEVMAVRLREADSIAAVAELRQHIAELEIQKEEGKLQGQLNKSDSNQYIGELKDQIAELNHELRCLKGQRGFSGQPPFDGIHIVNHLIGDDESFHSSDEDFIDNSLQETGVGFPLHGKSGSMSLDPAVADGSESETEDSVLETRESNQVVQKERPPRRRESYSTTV
UniProt Q93063: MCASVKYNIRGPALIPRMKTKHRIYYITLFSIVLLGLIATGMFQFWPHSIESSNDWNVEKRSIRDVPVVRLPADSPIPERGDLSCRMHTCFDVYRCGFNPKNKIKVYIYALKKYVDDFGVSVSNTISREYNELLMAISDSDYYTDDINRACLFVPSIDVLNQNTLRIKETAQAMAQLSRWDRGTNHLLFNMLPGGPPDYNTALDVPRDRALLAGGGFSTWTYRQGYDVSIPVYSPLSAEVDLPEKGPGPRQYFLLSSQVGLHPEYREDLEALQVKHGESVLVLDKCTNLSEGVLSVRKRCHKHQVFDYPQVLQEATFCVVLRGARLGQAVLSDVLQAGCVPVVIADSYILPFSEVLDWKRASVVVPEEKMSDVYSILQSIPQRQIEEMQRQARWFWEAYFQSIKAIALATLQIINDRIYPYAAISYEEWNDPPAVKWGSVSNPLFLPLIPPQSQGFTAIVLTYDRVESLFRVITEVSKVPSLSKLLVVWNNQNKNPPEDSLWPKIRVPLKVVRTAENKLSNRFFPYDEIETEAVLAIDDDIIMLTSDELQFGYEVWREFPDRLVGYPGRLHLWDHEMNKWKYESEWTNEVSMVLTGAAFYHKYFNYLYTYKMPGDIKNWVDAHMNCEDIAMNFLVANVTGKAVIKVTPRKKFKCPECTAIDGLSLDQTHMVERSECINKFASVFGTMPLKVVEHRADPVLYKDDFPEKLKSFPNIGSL
UniProt Q15024, whole entry, looked up: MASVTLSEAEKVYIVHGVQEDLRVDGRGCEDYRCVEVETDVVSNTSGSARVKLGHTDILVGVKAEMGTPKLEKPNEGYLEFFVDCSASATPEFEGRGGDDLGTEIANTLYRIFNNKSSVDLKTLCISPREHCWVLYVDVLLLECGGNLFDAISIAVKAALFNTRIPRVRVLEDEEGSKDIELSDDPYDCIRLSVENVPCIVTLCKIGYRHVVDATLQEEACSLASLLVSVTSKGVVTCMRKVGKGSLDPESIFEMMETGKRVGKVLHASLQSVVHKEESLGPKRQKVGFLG
UniProt Q96EK7: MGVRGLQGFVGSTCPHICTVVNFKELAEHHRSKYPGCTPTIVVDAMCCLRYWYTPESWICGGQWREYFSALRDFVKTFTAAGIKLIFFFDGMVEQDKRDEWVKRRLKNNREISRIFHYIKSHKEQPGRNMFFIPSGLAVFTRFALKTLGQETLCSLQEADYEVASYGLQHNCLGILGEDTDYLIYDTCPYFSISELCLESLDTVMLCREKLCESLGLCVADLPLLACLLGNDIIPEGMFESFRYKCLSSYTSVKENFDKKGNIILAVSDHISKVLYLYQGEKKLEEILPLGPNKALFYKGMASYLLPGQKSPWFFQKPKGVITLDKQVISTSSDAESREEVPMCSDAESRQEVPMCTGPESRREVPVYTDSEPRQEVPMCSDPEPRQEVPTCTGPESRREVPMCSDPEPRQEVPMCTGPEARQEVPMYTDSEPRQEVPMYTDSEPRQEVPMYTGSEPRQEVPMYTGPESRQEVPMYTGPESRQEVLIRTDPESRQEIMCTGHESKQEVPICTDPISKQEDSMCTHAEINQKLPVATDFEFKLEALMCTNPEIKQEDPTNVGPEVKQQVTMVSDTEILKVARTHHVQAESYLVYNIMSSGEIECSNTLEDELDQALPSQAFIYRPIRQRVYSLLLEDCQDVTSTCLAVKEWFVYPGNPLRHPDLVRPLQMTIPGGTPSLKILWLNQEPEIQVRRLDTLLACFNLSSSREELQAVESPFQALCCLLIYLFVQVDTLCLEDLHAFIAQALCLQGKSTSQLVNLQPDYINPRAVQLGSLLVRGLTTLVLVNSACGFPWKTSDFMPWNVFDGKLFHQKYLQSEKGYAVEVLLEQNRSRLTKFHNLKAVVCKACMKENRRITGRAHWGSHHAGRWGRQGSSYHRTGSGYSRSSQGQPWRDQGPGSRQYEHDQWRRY
UniProt Q96CS3: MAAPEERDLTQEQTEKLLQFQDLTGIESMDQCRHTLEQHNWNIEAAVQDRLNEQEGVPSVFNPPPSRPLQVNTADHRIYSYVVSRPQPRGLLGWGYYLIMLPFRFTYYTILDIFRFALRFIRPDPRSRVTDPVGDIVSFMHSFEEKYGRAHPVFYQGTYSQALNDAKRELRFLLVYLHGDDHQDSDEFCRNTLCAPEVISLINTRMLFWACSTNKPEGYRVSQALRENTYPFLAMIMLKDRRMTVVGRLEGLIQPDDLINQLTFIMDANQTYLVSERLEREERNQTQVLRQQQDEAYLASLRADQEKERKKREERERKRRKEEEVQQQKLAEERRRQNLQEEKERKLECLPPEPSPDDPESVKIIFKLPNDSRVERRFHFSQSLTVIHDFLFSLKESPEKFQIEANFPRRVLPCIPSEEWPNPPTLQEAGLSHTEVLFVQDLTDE
UniProt P13804: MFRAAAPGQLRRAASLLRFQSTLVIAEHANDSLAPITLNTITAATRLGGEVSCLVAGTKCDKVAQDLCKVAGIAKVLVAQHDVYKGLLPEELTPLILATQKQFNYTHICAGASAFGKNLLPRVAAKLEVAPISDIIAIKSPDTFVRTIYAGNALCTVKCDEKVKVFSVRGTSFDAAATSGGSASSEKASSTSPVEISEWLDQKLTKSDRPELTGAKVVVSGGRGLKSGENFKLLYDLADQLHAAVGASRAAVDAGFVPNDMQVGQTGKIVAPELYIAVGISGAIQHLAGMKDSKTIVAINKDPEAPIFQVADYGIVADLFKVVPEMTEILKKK
UniProt Q9H0X4: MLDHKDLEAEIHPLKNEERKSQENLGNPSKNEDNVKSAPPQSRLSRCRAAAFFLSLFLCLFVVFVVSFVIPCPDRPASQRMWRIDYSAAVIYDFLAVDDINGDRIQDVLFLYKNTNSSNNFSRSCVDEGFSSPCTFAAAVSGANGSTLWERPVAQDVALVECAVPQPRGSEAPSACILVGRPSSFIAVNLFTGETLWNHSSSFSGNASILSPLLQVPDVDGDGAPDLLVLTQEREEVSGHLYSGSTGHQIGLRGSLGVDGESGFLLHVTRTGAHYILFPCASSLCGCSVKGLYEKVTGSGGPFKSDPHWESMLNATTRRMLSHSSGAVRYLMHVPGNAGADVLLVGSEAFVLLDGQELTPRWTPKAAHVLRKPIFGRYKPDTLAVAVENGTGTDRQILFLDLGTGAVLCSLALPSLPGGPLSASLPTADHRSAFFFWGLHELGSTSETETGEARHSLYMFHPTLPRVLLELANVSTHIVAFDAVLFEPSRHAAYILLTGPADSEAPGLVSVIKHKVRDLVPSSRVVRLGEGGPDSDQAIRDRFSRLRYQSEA
UniProt Q96PL5: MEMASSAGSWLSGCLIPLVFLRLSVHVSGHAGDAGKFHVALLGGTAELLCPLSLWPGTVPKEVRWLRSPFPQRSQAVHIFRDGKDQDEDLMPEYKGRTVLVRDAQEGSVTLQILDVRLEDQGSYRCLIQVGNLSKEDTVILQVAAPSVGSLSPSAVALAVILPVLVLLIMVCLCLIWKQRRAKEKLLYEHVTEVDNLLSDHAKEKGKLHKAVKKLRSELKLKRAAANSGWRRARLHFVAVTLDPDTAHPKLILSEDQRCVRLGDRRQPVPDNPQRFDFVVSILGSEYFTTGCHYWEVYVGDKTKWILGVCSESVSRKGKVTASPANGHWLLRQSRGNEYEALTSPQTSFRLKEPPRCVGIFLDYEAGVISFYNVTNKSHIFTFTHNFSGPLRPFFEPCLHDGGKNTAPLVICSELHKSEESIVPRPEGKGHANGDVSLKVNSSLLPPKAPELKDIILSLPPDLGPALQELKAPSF
UniProt Q96GK7: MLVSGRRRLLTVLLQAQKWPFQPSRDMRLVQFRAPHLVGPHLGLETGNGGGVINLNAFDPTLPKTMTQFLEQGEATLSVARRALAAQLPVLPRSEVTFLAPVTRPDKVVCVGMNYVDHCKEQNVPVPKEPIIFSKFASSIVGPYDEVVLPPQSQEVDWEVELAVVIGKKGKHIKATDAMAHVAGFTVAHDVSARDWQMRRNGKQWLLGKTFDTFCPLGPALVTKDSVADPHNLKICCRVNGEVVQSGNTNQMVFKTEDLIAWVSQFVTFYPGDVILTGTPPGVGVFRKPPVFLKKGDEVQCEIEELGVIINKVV
UniProt P38117: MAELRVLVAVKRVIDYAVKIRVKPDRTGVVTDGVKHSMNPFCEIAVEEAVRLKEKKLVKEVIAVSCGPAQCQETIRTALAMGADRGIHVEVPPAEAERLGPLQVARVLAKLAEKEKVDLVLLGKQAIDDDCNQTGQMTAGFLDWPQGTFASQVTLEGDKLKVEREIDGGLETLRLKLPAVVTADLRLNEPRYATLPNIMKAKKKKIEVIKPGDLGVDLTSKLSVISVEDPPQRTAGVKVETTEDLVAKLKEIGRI
UniProt Q96E09: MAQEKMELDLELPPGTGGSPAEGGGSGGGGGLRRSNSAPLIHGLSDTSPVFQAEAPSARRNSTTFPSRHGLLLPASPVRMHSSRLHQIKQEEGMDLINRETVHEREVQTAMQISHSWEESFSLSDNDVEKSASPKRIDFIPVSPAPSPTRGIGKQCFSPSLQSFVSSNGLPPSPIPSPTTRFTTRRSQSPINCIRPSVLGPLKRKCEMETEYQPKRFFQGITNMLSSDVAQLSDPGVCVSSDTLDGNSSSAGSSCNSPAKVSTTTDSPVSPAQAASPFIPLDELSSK
UniProt O94905: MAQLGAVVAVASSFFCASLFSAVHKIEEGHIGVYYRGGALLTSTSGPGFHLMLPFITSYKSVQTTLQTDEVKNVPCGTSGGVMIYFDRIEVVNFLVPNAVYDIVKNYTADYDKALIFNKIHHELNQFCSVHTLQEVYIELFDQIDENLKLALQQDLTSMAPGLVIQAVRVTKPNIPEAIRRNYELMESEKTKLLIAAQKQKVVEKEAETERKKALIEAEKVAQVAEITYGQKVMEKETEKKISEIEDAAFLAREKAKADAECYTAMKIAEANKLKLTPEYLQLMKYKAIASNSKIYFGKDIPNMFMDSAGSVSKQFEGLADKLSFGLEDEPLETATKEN

Experiments:
Assay in all cases: log2 fold change, soluble protein after heating vs DMSO (PISA); higher = thermal stabilisation; K562 lysate, 10 uM; active = over 0.2 and 3.5 SD of the protein, either way, in both replicates (recomputed)
erlotinib = compound: C#Cc1cccc(Nc2ncnc3cc(OCCOC)c(OCCOC)cc23)c1 [erlotinib]
How it was run: (§1)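 Values give the log-two fold change in thermal stability against solvent controls, from duplicates. Crude K562 extract at 1 mg/mL protein, made by dounce homogenisation in PBS pH 7.4 with 1 mM MgCl2, was treated with 10 μM compound for 30 min. After 3 min heating across 48°C-58°C, aliquots were pooled, adjusted to 0.5% NP-40 at 4°C and centrifuged at 21,000xg for 90 min. The supernatant was measured by TMTpro 16plex LC-MS/MS with channel sums equalised.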

[1] = compound: C/C(=N\NC(=O)C1=CC(=CC=C1)S(=O)(=O)N2CCOCC2)/C3=C(C=CC(=C3)Cl)O
How it was run: as §1

[2] = compound: C1=CC(=CC=C1C2=NC3=C(N2)C=C(C=C3)C(=O)N)OC4=CC=C(C=C4)Cl
How it was run: as §1

[3] = compound: C1=CC2=C(C=CC(=C2)/C=C\3/C(=O)NC(=NCC4=CC=CS4)S3)N=C1
How it was run: as §1

[4] = compound: C1=CC2=NC=CN=C2C=C1/C=C/3\C(=O)NC(=O)S3
How it was run: as §1

[5] = compound: C1=CC=C(C=C1)C2=NC(=C(N2)C3=CC=NC=C3)C4=CC(=C(C=C4)Cl)O
How it was run: as §1

[6] = compound: C1=CC=C2C(=C1)C3=NNC4=CC=CC(=C43)C2=O
How it was run: as §1

[7] = compound: C1CCN(C1)C(=O)NC2=CC=CC(=C2)NC3=NC=C(C(=N3)NCCC4=CN=CN4)Br
How it was run: as §1

[8] = compound: C1CN(CCC1(CC2=CC=C(C=C2)Cl)N)C3=NC=NC4=C3C=CN4
How it was run: as §1

IRAK-1-4 Inhibitor I = compound: C1COCCN1CCN2C3=CC=CC=C3N=C2NC(=O)C4=CC(=CC=C4)[N+](=O)[O-] [IRAK-1-4 Inhibitor I]
How it was run: as §1

ibrutinib = compound: C=CC(=O)N1CCC[C@@H](n2nc(-c3ccc(Oc4ccccc4)cc3)c3c(N)ncnc32)C1 [ibrutinib]
How it was run: as §1

[9] = compound: CC(=O)c1cnc2ccc(-c3cc(Cl)c(O)c(Cl)c3)nc2c1N[C@H]1CC[C@H](CN(C)C)CC1
How it was run: as §1

ralimetinib = compound: CC(C)(C)Cn1c(N)nc2ccc(-c3[nH]c(C(C)(C)C)nc3-c3ccc(F)cc3)nc21 [ralimetinib]
How it was run: as §1

[10] = compound: CC(C)(O)CC(=O)NCCn1ccc2ncnc(Nc3ccc(Oc4cccc(C(F)(F)F)c4)c(Cl)c3)c21
How it was run: as §1

[11] = compound: CC(C)C1=C2N=C(C=C(N2N=C1)NCC3=CC=CC=C3)NCCCCCCN
How it was run: as §1

[12] = compound: CC1=C(C(CC(=O)N1)C2=CC=C(C=C2)C(F)(F)F)C(=O)NC3=C(C=C4C(=C3)C=NN4)F
How it was run: as §1

[13] = compound: CC1=C(C2=C(C=C1)C(=O)C3=CC=CC=C3N2CCCN)C
How it was run: as §1

[14] = compound: CC1=C(C=C(C=C1)NC(=O)C2=CC(=CC=C2)C(C)(C)C#N)NC3=CC4=C(C=C3)N=CN(C4=O)C
How it was run: as §1

[15] = compound: CC1=C(C=C(C=C1)NC(=O)C2=CC(=CC=C2)N(C)C)NC(=O)C3=CC=C(C=C3)O
How it was run: as §1

[16] = compound: CC1=CC=C(C=C1)SC2=C3C=C(SC3=CN=C2)C(=O)N
How it was run: as §1

Measured: log2 fold change

EVI5 isoform 2 (UniProt O60447)
inactive: erlotinib -0.07 | [1] 0.104 | [2] 0.063 | [3] 0.034 | [4] 0.047 | [5] -0.037 | [6] -0.037 | [7] 0.039 | [8] -0.033 | IRAK-1-4 Inhibitor I 0 | ibrutinib -0.025 | [9] 0.029 | ralimetinib 0.054 | [10] -0.009 | [11] 0.133 | [12] -0.026 | [13] -0.008 | [14] 0.398 | [15] -0.059 | [16] -0.015

EXT2 isoform 3 (UniProt Q93063)
inactive: erlotinib 0.066 | [1] -0.02 | [2] -0.008 | [3] -0.066 | [4] 0.034 | [5] -0.024 | [6] 0.025 | [7] 0.023 | [8] 0.008 | IRAK-1-4 Inhibitor I 0.073 | ibrutinib 0.166 | [9] 0.038 | ralimetinib -0.005 | [10] 0.016 | [11] -0.113 | [12] 0.04 | [13] -0.061 | [14] 0.06 | [15] -0.004 | [16] 0.189

EXOSC7 (UniProt Q15024)
inactive: erlotinib -0.012 | [1] 0.033 | [2] 0.001 | [3] -0.012 | [4] 0.002 | [5] -0.006 | [6] 0.009 | [7] -0.023 | [8] 0.017 | IRAK-1-4 Inhibitor I -0.011 | ibrutinib 0.022 | [9] -0.014 | ralimetinib -0.001 | [10] -0.018 | [11] -0.01 | [12] 0.011 | [13] -0.064 | [14] 0.022 | [15] -0.039 | [16] -0.01

FAM120B (UniProt Q96EK7)
inactive: erlotinib 0.056 | [1] -0.032 | [2] 0.036 | [3] 0.035 | [4] 0.02 | [5] -0.004 | [6] 0.044 | [7] -0.013 | [8] 0.007 | IRAK-1-4 Inhibitor I 0.009 | ibrutinib 0.023 | [9] -0.003 | ralimetinib 0.035 | [10] -0.013 | [11] 0.031 | [12] -0.028 | [13] 0.002 | [14] 0.008 | [15] 0.041 | [16] 0.012

FAF2 (UniProt Q96CS3)
inactive: erlotinib 0.024 | [1] 0.005 | [2] -0.016 | [3] 0.021 | [4] -0.031 | [5] -0.001 | [6] -0.016 | [7] -0.012 | [8] 0.031 | IRAK-1-4 Inhibitor I 0.034 | ibrutinib 0.041 | [9] 0.057 | ralimetinib 0.045 | [10] -0.009 | [11] 0.018 | [12] -0.036 | [13] 0.045 | [14] 0.034 | [15] 0.006 | [16] 0.041

ETFA (UniProt P13804)
inactive: erlotinib -0.001 | [1] 0.051 | [2] -0.043 | [3] -0.034 | [4] 0.02 | [5] -0.012 | [6] 0.01 | [7] -0.005 | [8] 0.009 | IRAK-1-4 Inhibitor I -0.024 | ibrutinib 0.007 | [9] 0.013 | ralimetinib -0.009 | [10] 0.01 | [11] -0.017 | [12] -0.021 | [13] -0.012 | [14] 0.018 | [15] -0.019 | [16] 0.019

FAM234A (UniProt Q9H0X4)
inactive: erlotinib 0.049 | [1] -0.064 | [2] 0.057 | [3] -0.019 | [4] 0.046 | [5] -0.026 | [6] -0.096 | [7] 0.043 | [8] 0.036 | IRAK-1-4 Inhibitor I -0.035 | ibrutinib -0.018 | [9] 0.036 | ralimetinib -0.009 | [10] -0.087 | [11] -0.033 | [12] 0 | [13] 0.012 | [14] 0.075 | [15] 0.025 | [16] -0.042

ERMAP (UniProt Q96PL5)
inactive: erlotinib -0.003 | [1] 0.158 | [2] 0.055 | [3] 0 | [4] 0 | [5] 0.057 | [6] -0.114 | [7] 0.021 | [8] 0.064 | IRAK-1-4 Inhibitor I 0.004 | ibrutinib 0.072 | [9] -0.01 | ralimetinib 0.003 | [10] -0.092 | [11] -0.061 | [12] 0.023 | [13] -0.051 | [14] -0.049 | [15] -0.042 | [16] 0.039

FAHD2A (UniProt Q96GK7)
inactive: erlotinib 0.002 | [1] -0.007 | [2] 0.017 | [3] -0.037 | [4] 0.009 | [5] -0.003 | [6] -0.003 | [7] -0.001 | [8] 0.009 | IRAK-1-4 Inhibitor I 0.029 | ibrutinib 0 | [9] -0.004 | ralimetinib 0.001 | [10] -0.026 | [11] -0.007 | [12] 0.012 | [13] 0.003 | [14] 0.031 | [15] -0.06 | [16] -0.015

ETFB (UniProt P38117)
inactive: erlotinib -0.023 | [1] -0.008 | [2] 0.022 | [3] -0.045 | [4] 0.002 | [5] 0 | [6] -0.017 | [7] -0.004 | [8] 0.021 | IRAK-1-4 Inhibitor I -0.017 | ibrutinib -0.053 | [9] -0.008 | ralimetinib -0.024 | [10] -0.009 | [11] -0.016 | [12] -0.037 | [13] 0 | [14] -0.014 | [15] 0.011 | [16] -0.006

Copied from above (2 entries):
ETFA (UniProt P13804)
inactive: erlotinib -0.001 | [1] 0.051 | [2] -0.043 | [3] -0.034 | [4] 0.02 | [5] -0.012 | [6] 0.01 | [7] -0.005 | [8] 0.009 | IRAK-1-4 Inhibitor I -0.024 | ibrutinib 0.007 | [9] 0.013 | ralimetinib -0.009 | [10] 0.01 | [11] -0.017 | [12] -0.021 | [13] -0.012 | [14] 0.018 | [15] -0.019 | [16] 0.019

FAM234A (UniProt Q9H0X4)
inactive: erlotinib 0.049 | [1] -0.064 | [2] 0.057 | [3] -0.019 | [4] 0.046 | [5] -0.026 | [6] -0.096 | [7] 0.043 | [8] 0.036 | IRAK-1-4 Inhibitor I -0.035 | ibrutinib -0.018 | [9] 0.036 | ralimetinib -0.009 | [10] -0.087 | [11] -0.033 | [12] 0 | [13] 0.012 | [14] 0.075 | [15] 0.025 | [16] -0.042

The listing continues:

ETF1 (UniProt P62495)
inactive: erlotinib -0.01 | [1] -0.015 | [2] -0.01 | [3] -0.007 | [4] -0.012 | [5] -0.008 | [6] 0.003 | [7] -0.024 | [8] 0.015 | IRAK-1-4 Inhibitor I -0.004 | ibrutinib -0.003 | [9] -0.004 | ralimetinib -0.015 | [10] -0.003 | [11] -0.022 | [12] -0.039 | [13] 0.016 | [14] 0.009 | [15] -0.009 | [16] 0.001

FADS1, A0A0A0MR51
inactive: erlotinib -0.006 | [1] -0.033 | [2] -0.008 | [3] 0.085 | [4] -0.026 | [5] -0.012 | [6] 0.05 | [7] -0.002 | [8] -0.064 | IRAK-1-4 Inhibitor I -0.026 | ibrutinib 0.011 | [9] 0.178 | ralimetinib 0.094 | [10] 0.094 | [11] -0.003 | [12] -0.032 | [13] 0.002 | [14] 0.113 | [15] -0.08 | [16] -0.115

ERVK3-1, A0A0U1RQV1
inactive: erlotinib 0.001 | [1] -0.053 | [2] 0.019 | [3] 0.008 | [4] -0.013 | [5] -0.01 | [6] -0.031 | [7] 0.083 | [8] 0.064 | IRAK-1-4 Inhibitor I 0.041 | ibrutinib 0.117 | [9] -0.026 | ralimetinib 0.09 | [10] -0.038 | [11] 0.015 | [12] -0.031 | [13] 0.006 | [14] 0.067 | [15] -0.012 | [16] -0.056

FAM122A (UniProt Q96E09)
inactive: erlotinib -0.025 | [1] -0.157 | [2] 0.076 | [3] 0.053 | [4] -0.002 | [5] -0.031 | [6] 0.099 | [7] 0 | [8] 0.036 | IRAK-1-4 Inhibitor I 0.053 | ibrutinib 0.017 | [9] -0.031 | ralimetinib -0.007 | [10] -0.009 | [11] -0.015 | [12] -0.05 | [13] -0.016 | [14] 0 | [15] 0.04 | [16] -0.034

ERLIN2 (UniProt O94905)
inactive: erlotinib -0.028 | [1] 0.051 | [2] -0.1 | [3] -0.002 | [4] -0.047 | [5] -0.019 | [6] -0.031 | [7] -0.039 | [8] 0.006 | IRAK-1-4 Inhibitor I -0.013 | ibrutinib 0.033 | [9] -0.028 | ralimetinib 0.026 | [10] -0.023 | [11] -0.023 | [12] -0.012 | [13] -0.031 | [14] -0.016 | [15] 0.066 | [16] -0.014
